Experimental data taken from patent publication US9051581B2, “Defense peptides against fungal infection and method of their use” (The Curators of the University of Missouri, priority 2010, dated 2015).
Some results were stated once for a whole list of compounds, not compound by compound.

Tested on: P. pachyrhizi urediniospores
Assay: In vitro inhibition of urediniospore germ tube growth by phage-display peptide clones (initial assessment, repeated trials)
Type: cell-based, Phakopsora pachyrhizi
Settings: 10 trials; field-collected urediniospores; phage-display format
Method: Representative, affinity-selected, phage-display peptide clones were initially assessed in vitro for the ability to inhibit urediniospore germ tube growth. Two-hundred fifty phage clones, randomly chosen from the final selection round, were amplified by E. coli infection, twice purified using PEG-precipitation, and re-suspended in sterile deionized water. Phage concentrations were calculated from UV absorbance measurements as virions μl^−1 (2).
A 25-μl water droplet containing ≈300 non-germinated urediniospores collected from soybean leaves in Florida was incubated on a microscope slide in the presence of a phage clone at a concentration equivalent to 10^13 virions ml^−1. […] Urediniospores were visualized using an Olympus Stereo Zoom Microscope (model SZH; Olympus Optical Co., LTD, Tokyo, Japan) at 50× magnification under transmitted light. Images of germinating urediniospores were captured in random microscope fields with a Spot Insight Color digital camera (Diagnostic Instruments, Inc., Sterling Heights, Mich.). Images were manipulated for viewing using Spot imaging software (version 4.0.3) set up with auto exposure to provide contrast of developing germ tubes against a green background. Comparative germination was assessed in three separate experiments. Phage clones that induced greater than 50% reduction in germ tube length (by visual estimation) compared to growth in water were evaluated in seven additional experiments.

Row | Sequence | share of trials/tests in which germ tube (germling) growth was inhibited
1 | MLESHAWPPRAI (Random peptide insert) [Sp2] | ≥ 50%
2 | YNKPSFQDHSVI (Random peptide insert) [Sp39] | ≥ 50%
3 | LTKEPATGRAML (Random peptide insert) [Sp18, 12-mer phage-display selected peptide] | ≥ 50%
4 | FDPHEPTNTRSP (Random peptide insert) [Sp15, 12-mer phage-display selected peptide] | ≥ 50%
5 | ASTIGNLMPGHS (Random peptide insert) [Sp14, 12-mer phage-display selected peptide] | ≥ 50%
